Experimental data reported in US11731977B2, “SGC stimulators” (Cyclerion Therapeutics, Inc., priority 2016, dated 2023).
For at least one compound, name, drawing or mass did not settle the structure.

System: male Long Evans rats
Experiment: Novel Object Recognition (NOR) test, MK-801-induced memory disruption (Example 10)
Type: in vivo, rat
Conditions: Galantamine 1 mg/kg, vs Vehicle/MK-801
Text: Objective. To assess the efficacy of compounds of the invention in reversing memory disruption induced by MK-801 using the Novel Object Recognition (NOR) test in male Long Evans rats. The NOR is a test of recognition learning and memory retrieval, which takes advantage of the spontaneous preference of rodents to investigate a novel object compared with a familiar one (Ennaceur and Delacour, 1988). […] The NOR test has been employed extensively to assess the potential cognitive-enhancing properties of novel test compounds. […] In the present study, a memory saving model was used to test the novel compound—MK-801 (Dizocilpine), an uncompetitive antagonist of the NMD A receptor was used to cause deficit of recognition memory. Compounds of the invention were evaluated through its efficacy in reversing memory impairment.
Animals. Adult male Long-Evans rats (275-299 gram at arrival from Envigo, Indianapolis, Ind.) were used in this study. Rats were placed in the experimental rooms and assigned unique identification numbers (tail marks). […]
Experimental procedures. […] All training and testing trials were video-taped and scored by an observer blind to treatments.
On Days 1 and 2, rats were allowed to freely explore the arena (no objects inside) for a 5-minute habituation period. […] Each rat was placed in the arena facing the same direction at the same position, and the time spent actively exploring the objects during a 3-minute training period (T1) was recorded. […] Each rat was placed back into the test arena in the presence of one familiar object and one novel object for 5 minutes, and the time spent exploring both objects was recorded during 0-1, 0-3 and 0-5 min time ranges. […]
Statistical Analysis. Data of NOR test (T2) were expressed as Recognition Index, which is defined as the ratio of the time spent exploring the novel object over the total time spent exploring both objects (Novel/(Familiar+Novel)×100%) during the test session. Data were analyzed by using one-way ANOVA followed by Fisher's LSD post hoc test on 0-1, 0-3 and 0-5 minute time range separately, with significance set at P<0.05. […]

Measured: reversal of MK-801-induced memory deficits (Recognition Index)

COc1ccc2c3c1O[C@H]1C[C@@H](O)C=C[C@@]31CCN(C)C2 [Galantamine, reference compound]
significantly reversed: 0-1 min time range, Compound I-1 1 mg/kg | 0-3 minute time range, Compound I-1 0.1 and 1 mg/kg | 0-5 minute time range, Compound I-1 1 mg/kg
